Results taken from ChEMBL document CHEMBL3997848 (Bioorg Med Chem, 2017).

Chains of the proteins cited; added tags and fusions are not shown.
UniProt A3QJX7, whole entry: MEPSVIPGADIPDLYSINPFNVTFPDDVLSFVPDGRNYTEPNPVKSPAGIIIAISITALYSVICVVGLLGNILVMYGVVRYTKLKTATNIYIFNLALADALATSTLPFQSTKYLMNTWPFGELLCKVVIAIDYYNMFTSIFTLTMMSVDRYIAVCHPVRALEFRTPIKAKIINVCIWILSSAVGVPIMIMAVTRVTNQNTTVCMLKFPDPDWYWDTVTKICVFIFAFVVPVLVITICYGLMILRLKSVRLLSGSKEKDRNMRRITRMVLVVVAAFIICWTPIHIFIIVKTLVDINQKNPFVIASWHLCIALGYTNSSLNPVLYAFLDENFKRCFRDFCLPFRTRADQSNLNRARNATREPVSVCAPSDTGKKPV
UniProt B3DH72, whole entry: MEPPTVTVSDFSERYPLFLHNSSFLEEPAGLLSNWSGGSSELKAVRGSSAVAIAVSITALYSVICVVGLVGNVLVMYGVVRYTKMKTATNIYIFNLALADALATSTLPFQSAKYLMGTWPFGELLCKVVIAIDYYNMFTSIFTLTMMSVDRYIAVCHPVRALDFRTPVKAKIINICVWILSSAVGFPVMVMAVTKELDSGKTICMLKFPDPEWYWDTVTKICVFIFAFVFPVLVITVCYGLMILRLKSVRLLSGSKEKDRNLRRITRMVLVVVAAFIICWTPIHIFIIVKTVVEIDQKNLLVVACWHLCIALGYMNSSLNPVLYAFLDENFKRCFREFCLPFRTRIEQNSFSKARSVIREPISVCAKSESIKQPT

Columns and labels:
[1] = target: Opioid receptor homologue (Danio rerio, UniProt A3QJX7); experiment: Displacement of [3H]DPN from zebrafish delta 1a opioid receptor expressed in HEK293 cell membranes after 1 hr by scintillation counting method
[2] = target: Opioid receptor, delta 1b (Danio rerio, UniProt B3DH72); experiment: Displacement of [3H]DPN from zebrafish delta 1b opioid receptor expressed in HEK293 cell membranes after 4 hrs by scintillation counting method

Which Ki [1] does the source give for `CN1CC[C@]23c4c5ccc(O)c4O[C@H]2[C@@H](O)C=C[C@H]3[C@H]1C5` [MORPHINE] here?
The Ki was 0.223 µM.

And the Ki [2]?
Its Ki is 1.43 µM.
